Data as given in publication PMC8134040.
No constants are given. Whether binding was seen depends on the method and setting. Binding seen in cells or lysates may run through a third protein.

Molecular target: EphA2 (as used in the Co-IP with Lyn, Src, Fyn and Lck, Fig. S2), P29317
Test: co-IP; EphA2 with SRC family kinases (Fig. S2A-D); endogenous or tagged proteins and cells not stated
Details: remark: other sources report otherwise

binding: no binding
B1: Lyn, P07948 1-512 (enzyme)
chain: MGCIKSKGKDSLSDDGVDLKTQPVRNTERTIYVRDPTSNKQQRPVPESQLLPGQRFQTKDPEEQGDIVVALYPYDGIHPDDLSFKKGEKMKVLEEHGEWWKAKSLLTKKEGFIPSNYVAKLNTLETEEWFFKDITRKDAERQLLAPGNSAGAFLIRESETLKGSFSLSVRDFDPVHGDVIKHYKIRSLDNGGYYISPRITFPCISDMIKHYQKQADGLCRRLEKACISPKPQKPWDKDAWEIPRESIKLVKRLGAGQFGEVWMGYYNNSTKVAVKTLKPGTMSVQAFLEEANLMKTLQHDKLVRLYAVVTREEPIYIITEYMAKGSLLDFLKSDEGGKVLLPKLIDFSAQIAEGMAYIERKNYIHRDLRAANVLVSESLMCKIADFGLARVIEDNEYTAREGAKFPIKWTAPEAINFGCFTIKSDVWSFGILLYEIVTYGKIPYPGRTNADVMTALSQGYRMPRVENCPDELYDIMKMCWKEKAEERPTFDYLQSVLDDFYTATEGQYQQQP
